Data as given in patent publication US20050201975A1.
These are yes or no findings as the source states them, for the method shown. Some entries that bind do so weakly or less than the wild type.

Amino acid sequences for entries named in this document (tags omitted).
UniProt Q06330: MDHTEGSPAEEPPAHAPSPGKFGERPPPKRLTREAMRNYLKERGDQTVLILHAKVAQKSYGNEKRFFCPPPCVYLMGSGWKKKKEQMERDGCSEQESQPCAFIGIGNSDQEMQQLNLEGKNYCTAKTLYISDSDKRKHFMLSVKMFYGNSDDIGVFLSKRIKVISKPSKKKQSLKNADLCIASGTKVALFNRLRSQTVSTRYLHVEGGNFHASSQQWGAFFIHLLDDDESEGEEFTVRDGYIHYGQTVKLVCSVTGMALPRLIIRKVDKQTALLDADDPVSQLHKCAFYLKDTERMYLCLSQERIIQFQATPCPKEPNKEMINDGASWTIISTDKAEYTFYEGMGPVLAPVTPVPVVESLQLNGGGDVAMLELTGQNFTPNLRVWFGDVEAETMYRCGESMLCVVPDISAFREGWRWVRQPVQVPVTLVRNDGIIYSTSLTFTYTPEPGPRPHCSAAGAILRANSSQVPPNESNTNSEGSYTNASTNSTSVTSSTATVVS

Tests used:
[1] = molecular target: GAL4BD-N1 fragment (1762-1829) fusion protein (human (Notch1 part)); assay: yeast two-hybrid screen of human spleen cDNA library, AH109pLOR67
[2] = molecular target: GAL4BD-N1 fragment (1762-1829) fusion protein (human (Notch1 part)); assay: yeast two-hybrid retransformation, -WLH, -WLHA, -WLHAXαGAL plates and LacZ filter assay

Substance: GAL4AD fusion protein encoded by plasmid 8-2 (CBF1 fragment) (from UniProt Q06330 1-500)
- binding [1]: binds
- binding [2]: binds
